{"source": "the supplement of paper PMC8728848", "binders": {"B1": {"name": "SBD (Rhizopus oryzae), P07683 (protein)", "chain": "ASIPSSASVQLDSYNYDGSTFSGKIYVKNIAYSKKVTVVYADGSDNWNNNGNIIAASFSGPISGSNYEYWTFSASVKGIKEFYIKYEVSGKTYYDNNNSANYQVS"}}, "experiment_in_all_cases": "glycan array binding signal (z-score within array); higher = stronger binding", "conditions_in_all_cases": "glycan notation: IUPAC condensed, linker removed", "key": {"Fuc(a1-2)Gal": {"target": "Fuc(a1-2)Gal", "method_in_brief": "(§1)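 From the Consortium for Functional Glycomics database, 3228 arrays were curated, keeping only those whose protein sequence was available. Binding is given as a within-array Z-score averaged across arrays sharing a protein sequence and across linkers. Negative Z-scores can be read as non-binding.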"}, "Fuc(a1-2)Gal(b1-3)GalNAc": {"target": "Fuc(a1-2)Gal(b1-3)GalNAc", "method_in_brief": "as §1"}, "[1]": {"target": "Fuc(a1-2)Gal(b1-3)GalNAc(a1-3)[Fuc(a1-2)]Gal(b1-4)Glc", "method_in_brief": "as §1"}, "[2]": {"target": "Fuc(a1-2)Gal(b1-3)GalNAc(a1-3)[Fuc(a1-2)]Gal(b1-4)GlcNAc", "method_in_brief": "as §1"}, "[3]": {"target": "Fuc(a1-2)Gal(b1-3)GalNAc(b1-3)Gal", "method_in_brief": "as §1"}, "[4]": {"target": "Fuc(a1-2)Gal(b1-3)GalNAc(b1-3)Gal(a1-4)Gal(b1-4)Glc", "method_in_brief": "as §1"}, "[5]": {"target": "Fuc(a1-2)Gal(b1-3)GalNAc(b1-4)[Neu5Ac(a2-3)]Gal(b1-4)Glc", "method_in_brief": "as §1"}, "Fuc(a1-2)Gal(b1-3)GlcNAc": {"target": "Fuc(a1-2)Gal(b1-3)GlcNAc", "method_in_brief": "as §1"}, "[6]": {"target": "Fuc(a1-2)Gal(b1-3)GlcNAc(b1-2)Man(a1-3)[Fuc(a1-2)Gal(b1-3)GlcNAc(b1-2)Man(a1-6)]Man(b1-4)GlcNAc(b1-4)GlcNAc", "method_in_brief": "as §1"}, "[7]": {"target": "Fuc(a1-2)Gal(b1-3)GlcNAc(b1-3)Gal(b1-4)Glc", "method_in_brief": "as §1"}, "[8]": {"target": "Fuc(a1-2)Gal(b1-3)GlcNAc(b1-3)[Fuc(a1-3)[Gal(b1-4)]GlcNAc(b1-6)]Gal(b1-4)Glc", "method_in_brief": "as §1"}, "[9]": {"target": "Fuc(a1-2)Gal(b1-3)GlcNAc(b1-3)[Gal(b1-4)[Fuc(a1-3)]GlcNAc(b1-6)]Gal(b1-4)Glc", "method_in_brief": "as §1"}, "[10]": {"target": "Fuc(a1-2)Gal(b1-3)[Fuc(a1-4)]GlcNAc", "method_in_brief": "as §1"}, "[11]": {"target": "Fuc(a1-2)Gal(b1-3)[Fuc(a1-4)]GlcNAc(b1-2)Man(a1-3)[Fuc(a1-2)Gal(b1-3)[Fuc(a1-4)]GlcNAc(b1-2)Man(a1-6)]Man(b1-4)GlcNAc(b1-4)GlcNAc", "method_in_brief": "as §1"}, "[12]": {"target": "Fuc(a1-2)Gal(b1-3)[Fuc(a1-4)]GlcNAc(b1-3)[Fuc(a1-3)[Gal(b1-4)]GlcNAc(b1-6)]Gal(b1-4)Glc", "method_in_brief": "as §1"}, "[13]": {"target": "Fuc(a1-2)Gal(b1-3)[Fuc(a1-4)]GlcNAc(b1-3)[Gal(b1-4)GlcNAc(b1-6)]Gal(b1-4)Glc", "method_in_brief": "as §1"}, "Fuc(a1-2)Gal(b1-4)Glc": {"target": "Fuc(a1-2)Gal(b1-4)Glc", "method_in_brief": "as §1"}, "Fuc(a1-2)Gal(b1-4)Glc6S": {"target": "Fuc(a1-2)Gal(b1-4)Glc6S", "method_in_brief": "as §1"}, "Fuc(a1-2)Gal(b1-4)GlcNAc": {"target": "Fuc(a1-2)Gal(b1-4)GlcNAc", "method_in_brief": "as §1"}, "[14]": {"target": "Fuc(a1-2)Gal(b1-4)GlcNAc(b1-2)Man(a1-3)[Fuc(a1-2)Gal(b1-4)GlcNAc(b1-2)Man(a1-6)]Man(b1-4)GlcNAc(b1-4)GlcNAc", "method_in_brief": "as §1"}, "[15]": {"target": "Fuc(a1-2)Gal(b1-4)GlcNAc(b1-3)Gal(b1-4)GlcNAc", "method_in_brief": "as §1"}, "[16]": {"target": "Fuc(a1-2)Gal(b1-4)GlcNAc(b1-3)Gal(b1-4)GlcNAc(b1-3)Gal(b1-4)GlcNAc", "method_in_brief": "as §1"}, "[17]": {"target": "Fuc(a1-2)Gal(b1-4)GlcNAc(b1-3)GalNAc", "method_in_brief": "as §1"}, "[18]": {"target": "Fuc(a1-2)Gal(b1-4)GlcNAc6S", "method_in_brief": "as §1"}, "[19]": {"target": "Fuc(a1-2)Gal(b1-4)[Fuc(a1-3)]GlcNAc", "method_in_brief": "as §1"}, "[20]": {"target": "Fuc(a1-2)Gal(b1-4)[Fuc(a1-3)]GlcNAc(b1-2)Man(a1-3)[Fuc(a1-2)Gal(b1-4)[Fuc(a1-3)]GlcNAc(b1-2)Man(a1-6)]Man(b1-4)GlcNAc(b1-4)GlcNAc", "method_in_brief": "as §1"}, "[21]": {"target": "Fuc(a1-2)Gal(b1-4)[Fuc(a1-3)]GlcNAc(b1-3)Gal(b1-4)[Fuc(a1-3)]GlcNAc", "method_in_brief": "as §1"}, "[22]": {"target": "Fuc(a1-2)Gal(b1-4)[Fuc(a1-3)]GlcNAc(b1-3)Gal(b1-4)[Fuc(a1-3)]GlcNAc(b1-3)Gal(b1-4)[Fuc(a1-3)]GlcNAc", "method_in_brief": "as §1"}, "Fuc(a1-2)Gal6S(b1-4)Glc": {"target": "Fuc(a1-2)Gal6S(b1-4)Glc", "method_in_brief": "as §1"}, "[23]": {"target": "Fuc(a1-2)Gal6S(b1-4)Glc6S", "method_in_brief": "as §1"}, "[24]": {"target": "Fuc(a1-2)Gal6S(b1-4)GlcNAc", "method_in_brief": "as §1"}, "Fuc(a1-2)[Gal(a1-3)]Gal": {"target": "Fuc(a1-2)[Gal(a1-3)]Gal", "method_in_brief": "as §1"}, "[25]": {"target": "Fuc(a1-2)[Gal(a1-3)]Gal(b1-3)GlcNAc", "method_in_brief": "as §1"}, "[26]": {"target": "Fuc(a1-2)[Gal(a1-3)]Gal(b1-3)GlcNAc(b1-2)Man(a1-3)[Fuc(a1-2)[Gal(a1-3)]Gal(b1-3)GlcNAc(b1-2)Man(a1-6)]Man(b1-4)GlcNAc(b1-4)GlcNAc", "method_in_brief": "as §1"}, "[27]": {"target": "Fuc(a1-2)[Gal(a1-3)]Gal(b1-4)Glc", "method_in_brief": "as §1"}, "[28]": {"target": "Fuc(a1-2)[Gal(a1-3)]Gal(b1-4)GlcNAc", "method_in_brief": "as §1"}, "[29]": {"target": "Fuc(a1-2)[Gal(a1-3)]Gal(b1-4)GlcNAc(b1-2)Man(a1-3)[Fuc(a1-2)[Gal(a1-3)]Gal(b1-4)GlcNAc(b1-2)Man(a1-6)]Man(b1-4)GlcNAc(b1-4)GlcNAc", "method_in_brief": "as §1"}}, "note": "The list shows a part of the results."}
{"binder": "B1", "values": [{"measurement": "glycan array binding signal (z-score)", "setting": "Fuc(a1-2)Gal", "result": -0.246}, {"measurement": "glycan array binding signal (z-score)", "setting": "Fuc(a1-2)Gal(b1-3)GalNAc", "result": 0.019}, {"measurement": "glycan array binding signal (z-score)", "setting": "[1]", "result": -0.763}, {"measurement": "glycan array binding signal (z-score)", "setting": "[2]", "result": 0.422}, {"measurement": "glycan array binding signal (z-score)", "setting": "[3]", "result": 2.93}, {"measurement": "glycan array binding signal (z-score)", "setting": "[4]", "result": 0.514}, {"measurement": "glycan array binding signal (z-score)", "setting": "[5]", "result": -0.151}, {"measurement": "glycan array binding signal (z-score)", "setting": "Fuc(a1-2)Gal(b1-3)GlcNAc", "result": 0.141}, {"measurement": "glycan array binding signal (z-score)", "setting": "[6]", "result": 0.366}, {"measurement": "glycan array binding signal (z-score)", "setting": "[7]", "result": 2.1}, {"measurement": "glycan array binding signal (z-score)", "setting": "[8]", "result": 0.446}, {"measurement": "glycan array binding signal (z-score)", "setting": "[9]", "result": -0.196}, {"measurement": "glycan array binding signal (z-score)", "setting": "[10]", "result": 0.008}, {"measurement": "glycan array binding signal (z-score)", "setting": "[11]", "result": 1.09}, {"measurement": "glycan array binding signal (z-score)", "setting": "[12]", "result": -0.892}, {"measurement": "glycan array binding signal (z-score)", "setting": "[13]", "result": -0.553}, {"measurement": "glycan array binding signal (z-score)", "setting": "Fuc(a1-2)Gal(b1-4)Glc", "result": -0.623}, {"measurement": "glycan array binding signal (z-score)", "setting": "Fuc(a1-2)Gal(b1-4)Glc6S", "result": 0.004}, {"measurement": "glycan array binding signal (z-score)", "setting": "Fuc(a1-2)Gal(b1-4)GlcNAc", "result": -0.048}, {"measurement": "glycan array binding signal (z-score)", "setting": "[14]", "result": 0.71}, {"measurement": "glycan array binding signal (z-score)", "setting": "[15]", "result": 0.056}, {"measurement": "glycan array binding signal (z-score)", "setting": "[16]", "result": -0.154}, {"measurement": "glycan array binding signal (z-score)", "setting": "[17]", "result": 0.64}, {"measurement": "glycan array binding signal (z-score)", "setting": "[18]", "result": -0.307}, {"measurement": "glycan array binding signal (z-score)", "setting": "[19]", "result": -0.216}, {"measurement": "glycan array binding signal (z-score)", "setting": "[20]", "result": 0.821}, {"measurement": "glycan array binding signal (z-score)", "setting": "[21]", "result": -0.351}, {"measurement": "glycan array binding signal (z-score)", "setting": "[22]", "result": 0.184}, {"measurement": "glycan array binding signal (z-score)", "setting": "Fuc(a1-2)Gal6S(b1-4)Glc", "result": -0.065}, {"measurement": "glycan array binding signal (z-score)", "setting": "[23]", "result": -0.187}, {"measurement": "glycan array binding signal (z-score)", "setting": "[24]", "result": -0.28}, {"measurement": "glycan array binding signal (z-score)", "setting": "Fuc(a1-2)[Gal(a1-3)]Gal", "result": 0.598}, {"measurement": "glycan array binding signal (z-score)", "setting": "[25]", "result": 0.167}, {"measurement": "glycan array binding signal (z-score)", "setting": "[26]", "result": 0.476}, {"measurement": "glycan array binding signal (z-score)", "setting": "[27]", "result": -0.385}, {"measurement": "glycan array binding signal (z-score)", "setting": "[28]", "result": -0.321}, {"measurement": "glycan array binding signal (z-score)", "setting": "[29]", "result": -0.055}]}
